{"source": "patent US11331351B2", "about": "“Bacillus strains improving health and performance of production animals” (priority 2015, dated 2022)", "origin": "cited, not measured here", "details_in_all_cases": "EFSA Journal 2012; 10(6): 2740; cited from earlier work", "key": {"B. subtilis DSM 29871": {"tested_on": "B. subtilis DSM 29871"}, "[1]": {"tested_on": "B. amyloliquefaciens DSM 29869"}, "B. subtilis DSM 29870": {"tested_on": "B. subtilis DSM 29870"}}, "note": "For at least one compound, name, drawing or mass did not settle the structure."}
{"smiles": "CCC[C@@H]1C[C@@H](C(=O)N[C@@H]([C@H]2O[C@H](SC)[C@H](O)[C@@H](O)[C@H]2O)[C@H](C)Cl)N(C)C1", "note": "[Clindamycin]", "values": [{"measurement": "EFSA breakpoints", "setting": "B. subtilis DSM 29871", "result": 4, "unit": "µg/mL"}, {"measurement": "EFSA breakpoints", "setting": "[1]", "result": 4, "unit": "µg/mL"}, {"measurement": "EFSA breakpoints", "setting": "B. subtilis DSM 29870", "result": 4, "unit": "µg/mL"}]}
{"smiles": "CN(C)[C@@H]1C(O)=C(C(N)=O)C(=O)[C@@]2(O)C(O)=C3C(=O)c4c(O)cccc4[C@@](C)(O)[C@H]3C[C@@H]12", "note": "[Tetracycline]", "values": [{"measurement": "EFSA breakpoints", "setting": "B. subtilis DSM 29871", "result": 8, "unit": "µg/mL"}, {"measurement": "EFSA breakpoints", "setting": "[1]", "result": 8, "unit": "µg/mL"}, {"measurement": "EFSA breakpoints", "setting": "B. subtilis DSM 29870", "result": 8, "unit": "µg/mL"}]}
{"smiles": "NC[C@H]1O[C@H](O[C@H]2[C@H](O)[C@@H](O[C@H]3O[C@H](CO)[C@@H](O)[C@H](N)[C@H]3O)[C@H](N)C[C@@H]2N)[C@H](O)[C@@H](O)[C@@H]1O", "note": "[Kanamycin]", "values": [{"measurement": "EFSA breakpoints", "setting": "B. subtilis DSM 29871", "result": 8, "unit": "µg/mL"}, {"measurement": "EFSA breakpoints", "setting": "[1]", "result": 8, "unit": "µg/mL"}, {"measurement": "EFSA breakpoints", "setting": "B. subtilis DSM 29870", "result": 8, "unit": "µg/mL"}]}
